These are yes or no findings as the source states them, for the method shown. In cells and extracts the contact can be indirect. A yes stands for co-enrichment or nearness to the bait. Other partners may have been found.
Molecular target: T1, KIAA1199 (human (endogenous in RA FLS)) (UniProt Q8WUJ3)
T1 sequence: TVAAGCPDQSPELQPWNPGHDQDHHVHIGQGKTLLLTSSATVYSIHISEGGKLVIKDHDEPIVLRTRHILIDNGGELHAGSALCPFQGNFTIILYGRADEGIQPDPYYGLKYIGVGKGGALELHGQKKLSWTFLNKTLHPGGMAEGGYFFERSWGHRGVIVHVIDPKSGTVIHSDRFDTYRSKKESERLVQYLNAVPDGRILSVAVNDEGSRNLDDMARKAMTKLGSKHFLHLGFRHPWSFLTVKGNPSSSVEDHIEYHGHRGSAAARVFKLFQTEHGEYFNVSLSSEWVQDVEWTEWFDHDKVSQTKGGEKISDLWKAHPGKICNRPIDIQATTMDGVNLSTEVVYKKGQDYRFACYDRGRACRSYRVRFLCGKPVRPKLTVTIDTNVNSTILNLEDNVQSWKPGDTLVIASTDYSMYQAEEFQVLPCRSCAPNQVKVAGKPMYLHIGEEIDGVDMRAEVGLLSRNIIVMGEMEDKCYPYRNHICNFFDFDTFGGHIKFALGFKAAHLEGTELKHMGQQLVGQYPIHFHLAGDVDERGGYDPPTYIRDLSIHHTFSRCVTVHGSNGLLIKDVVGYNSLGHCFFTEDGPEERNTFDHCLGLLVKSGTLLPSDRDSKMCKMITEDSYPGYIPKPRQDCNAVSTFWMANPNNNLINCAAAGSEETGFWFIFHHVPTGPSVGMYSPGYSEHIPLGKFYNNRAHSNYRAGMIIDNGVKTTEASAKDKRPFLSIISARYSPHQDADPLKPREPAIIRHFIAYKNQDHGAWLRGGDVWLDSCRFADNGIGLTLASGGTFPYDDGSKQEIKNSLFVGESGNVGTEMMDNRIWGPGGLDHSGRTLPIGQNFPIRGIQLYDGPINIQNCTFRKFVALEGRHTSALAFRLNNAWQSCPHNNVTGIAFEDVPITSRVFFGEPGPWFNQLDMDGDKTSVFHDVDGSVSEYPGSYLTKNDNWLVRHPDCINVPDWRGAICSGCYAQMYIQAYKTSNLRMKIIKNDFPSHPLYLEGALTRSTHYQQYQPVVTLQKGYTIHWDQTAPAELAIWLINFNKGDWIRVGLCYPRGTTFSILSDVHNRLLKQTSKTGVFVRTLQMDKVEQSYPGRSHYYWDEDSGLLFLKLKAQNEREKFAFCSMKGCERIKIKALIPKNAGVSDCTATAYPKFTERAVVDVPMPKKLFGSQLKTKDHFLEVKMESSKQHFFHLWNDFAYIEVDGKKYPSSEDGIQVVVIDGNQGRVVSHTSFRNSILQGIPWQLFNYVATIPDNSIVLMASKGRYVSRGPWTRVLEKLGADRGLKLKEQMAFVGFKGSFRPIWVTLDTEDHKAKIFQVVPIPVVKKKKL
Test: affinity purification with mass spectrometry; RA FLS membrane protein extracts incubated overnight with anti-KIAA1199 mAb, Protein A/G magnetic agarose beads; SDS-PAGE, Nano-LC-MS/MS

B1: ANXA1 (protein, UniProt P04083 1-346)
chain: MAMVSEFLKQAWFIENEEQEYVQTVKSSKGGPGSAVSPYPTFNPSSDVAALHKAIMVKGVDEATIIDILTKRNNAQRQQIKAAYLQETGKPLDETLKKALTGHLEEVVLALLKTPAQFDADELRAAMKGLGTDEDTLIEILASRTNKEIRDINRVYREELKRDLAKDITSDTSGDFRNALLSLAKGDRSEDFGVNEDLADSDARALYEAGERRKGTDVNVFNTILTTRSYPQLRRVFQKYTKYSKHDMNKVLDLELKGDIEKCLTAIVKCATSKPAFFAEKLHQAMKGVGTRHKALIRIMVSRSEIDMNDIKAFYQKMYGISLCQAILDETKGDYEKILVALCGGN
binding: binds

Source: publication PMC7817834
